# PMC8877285
# T1: flavin-containing monooxygenase 3 (FMO3) (mouse (endogenous in mouse liver)) (UniProt P97501)
# T1 sequence: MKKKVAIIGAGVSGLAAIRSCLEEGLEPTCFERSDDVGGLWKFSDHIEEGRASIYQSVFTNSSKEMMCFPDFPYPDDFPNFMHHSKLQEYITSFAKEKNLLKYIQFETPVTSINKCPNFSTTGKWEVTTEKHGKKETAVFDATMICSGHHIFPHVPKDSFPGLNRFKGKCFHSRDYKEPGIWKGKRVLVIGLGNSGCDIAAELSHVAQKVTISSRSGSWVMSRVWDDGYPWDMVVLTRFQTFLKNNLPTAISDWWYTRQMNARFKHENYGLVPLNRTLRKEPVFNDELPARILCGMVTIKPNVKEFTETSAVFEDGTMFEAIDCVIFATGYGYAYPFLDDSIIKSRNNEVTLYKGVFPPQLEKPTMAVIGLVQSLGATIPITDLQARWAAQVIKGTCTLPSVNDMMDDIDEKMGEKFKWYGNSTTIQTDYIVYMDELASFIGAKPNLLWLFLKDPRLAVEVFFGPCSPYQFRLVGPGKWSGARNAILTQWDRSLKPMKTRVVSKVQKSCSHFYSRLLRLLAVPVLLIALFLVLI
# Biological target: T1, flavin-containing monooxygenase 3 (FMO3) (mouse (endogenous in mouse liver))
# Test: affinity purification with mass spectrometry; mouse liver extracts (vehicle or PCB-126-treated mice) in TBS (25 mM Tris pH 7.4, 150 mM NaCl, 1% NP-40, 5% glycerol, protease inhibitors), immunoprecipitated overnight at 4 °C with anti-FMO3 (Abnova) on protein A/G agarose; normal IgG IP as control; LC-MS/MS of the tryptic digest
row,binding,Binder
1,binds,"serine hydroxymethyltransferase 1 (Shmt1) (protein, UniProt P50431 1-478) MADRDATLWASHEKMLSQPLKDSDAEVYSIIKKESNRQRVGLELIASENFASRAVLEALGSCLNNKYSEGYPGQRYYGGTEFIDELEMLCQKRALQAYHLDPQCWGVNVQPYSGSPANFAVYTALVEPHGRIMGLDLPDGGHLTHGFMTDKKKISATSIFFESMPYKVYPETGYINYDQLEENASLFHPKLIIAGTSCYSRNLDYARLRKIADDNGAYLMADMAHISGLVAAGVVPSPFEHCHVVTTTTHKTLRGCRAGMIFYRKGVRSVDPKTGKETYYELESLINSAVFPGLQGGPHNHAIAGVAVALKQAMTTEFKIYQLQVLANCRALSDALTELGYKIVTGGSDNHLILMDLRSKGTDGGRAEKVLEACSIACNKNTCPGDKSALRPSGLRLGTPALTSRGLLEEDFQKVAHFIHRGIELTLQIQSHMATKATLKEFKEKLAGDEKIQSAVATLREEVENFASNFSLPGLPDF"
2,binds,"GSTZ1 (protein, UniProt Q9WVL0 1-216) MQAGKPILYSYFRSSCSWRVRIALALKGIDYEIVPINLIKDGGQQFTEEFQTLNPMKQVPALKIDGITIVQSLAIMEYLEETRPIPRLLPQDPQKRAIVRMISDLIASGIQPLQNLSVLKQVGQENQMQWAQKVITSGFNALEKILQSTAGKYCVGDEVSMADVCLVPQVANAERFKVDLSPYPTISHINKELLALEVFQVSHPRRQPDTPAELRT"
3,binds,"argininosuccinate synthetase (ASS) (protein, UniProt P16460 1-412) MSSKGSVVLAYSGGLDTSCILVWLKEQGYDVIAYLANIGQKEDFEEARKKALKLGAKKVFIEDVSKEFVEEFIWPAVQSSALYEDRYLLGTSLARPCIARRQVEIAQREGAKYVSHGATGKGNDQVRFELTCYSLAPQIKVIAPWRMPEFYNRFKGRNDLMEYAKQHGIPIPVTPKSPWSMDENLMHISYEAGILENPKNQAPPGLYTKTQDPAKAPNSPDVLEIEFKKGVPVKVTNIKDGTTRTTSLELFMYLNEVAGKHGVGRIDIVENRFIGMKSRGIYETPAGTILYHAHLDIEAFTMDREVRKIKQGLGLKFAELVYTGFWHSPECEFVRHCIQKSQERVEGKVQVSVFKGQVYILGRESPLSLYNEELVSMNVQGDYEPIDATGFININSLRLKEYHRLQSKVTAK"
4,binds,"GOLGA3 (protein, UniProt P55937 1-1487) MDGASAKQDGLWESKSSSDVSSCPEASLETVGSLARLPDQQDTAQDASVEVNRGFKEEGSPDRSSQVAICQNGQIPDLQLSLDPTTSPVGPDASTGVDGFHDNLRNSQGTSAEGSVRKEALQSLRLSLPMQETQLCSTASSLPLEKEEQVRLQARKRLEEQLMQYRVKRHRERSSQPATKMKLFSTLDPELMLNPENLPRASTVAVTKEYSFLRTSVPRGPKVGSLGLLAHSKEKKNSKSSKIRSLADYRTEDPSDSGGLGSTADAVGSSLKQSRSSTSVVSEVSPSSETDNRVESASMTGDSVSEADGNESDSSSHSSLSARGACGVLGNVGMPGTAYMVDGQEISAEALGQFPSIKDVLQAAAAQHQDQNQEANGEVRSRRDSICSSVSMESSLAEPQDELLQILKDKRRLEGQVEALSLEASQALQEKAELQAQLAALSTRLQAQVEHSHSSQQKQDSLSSEVDTLKQSCWDLGRAMTDLQSMLEAKNASLASSNNDLQVAEEQYQRLMAKVEDMQRNILSKDNTVHDLRQQMTALQSQLQQVQLERTTLTSKLQASQAEITSLQHARQWYQQQLTLAQEARVRLQGEMAHIQVGQMTQAGLLEHLKLENVSLSHQLTETQHRSIKEKERIAVQLQSIEADMLDQEAAFVQIREAKTMVEEDLQRRLEEFEGEREQLQKVADAAASLEQQLEQVKLTLFQRDQQLAALQQEHLDVIKQLTSTQEALQAKGQSLDDLHTRYDELQARLEELQREADSREDAIHFLQNEKIVLEVALQSAKSDKEELDRGARRLEEDTEETSGLLEQLRQDLAVKSNQVEHLQQETATLRKQMQKVKEQFVQQKVMVEAYRRDATSKDQLINELKATKKRLDSEMKELRQELIKLQGEKKTVEVEHSRLQKDMSLVHQQMAELEGHLQSVQKERDEMEIHLQSLKFDKEQMIALTEANETLKKQIEELQQEAKKAITEQKQKMKRLGSDLTSAQKEMKTKHKAYENAVSILSRRLQEALASKEATDAELNQLRAQSTGGSSDPVLHEKIRALEVELQNVGQSKILLEKELQEVITMTSQELEESREKVLELEDELQESRGFRRKIKRLEESNKKLALELEHERGKLTGLGQSNAALREHNSILETALAKREADLVQLNLQVQAVLQRKEEEDRQMKQLVQALQVSLEKEKMEVNSLKEQMAAARIEAGHNRRHFKAATLELSEVKKELQAKEHLVQTLQAEVDELQIQDGKHSQEIAQFQTELAEARTQLQLLQKKLDEQMSQQPTGSQEMEDLKWELDQKEREIQSLKQQLDLTEQQGKKELEGTQQTLQTIKSELEMVQEDLSETQKDKFMLQAKVSELKNNMKTLLQQNQQLKLDLRRGAAKKKEPKGESNSSSPATPIKIPDCPVPASLLEELLRPPPAVSKEPLKNLNNCLQQLKQEMDSLQRQMEEHTITVHESLSSWAQVEAAPAEHAHPRGDTKLHNQNSVPRDGLGQ"
5,binds,"FTCD (protein, UniProt Q91XD4 1-541) MSQLVECVPNFSEGNNQEVIDAISRAISQTPGCVLLDVDAGPSTNRTVYTFVGQPECVVEGALHAARTASQLIDMSKHKGEHPRMGALDVCPFIPVRGVSMEECVLCAKAFGQRLAEELNVPVYLYGEAAQTPSRQTLPAIRAGEYEALPEKLKQAEWVPDFGPSSFVPSWGATVTGARKFLIAFNINLLSTKEQAHRIALNLREQGRGKDQPGRLKKVQGIGWYLEEKNLAQVSTNLLDFEVTALHTVFEEARREAQELNLPVVGSQLVGLVPLKALLDAAAFYCDKEKLFVLEEEHRIRLVVNRLGLDSLAPFDPKERIIEYLVPDSGPEQSLLDTSLRGFVREVGARSAAPGGGSVAAAVAALGAALASMVGQMTYGRRQFDHLDSTMRRLIPPFHAASAQLTSLVDADARAFAACLEAIKLPKNTPEERDRRACALQEGLRQAVAVPLKLAETVSQLWPALQELAHCGNLSCLSDLQVAAKALETGVFGAYFNVLINLKDMTDDVFKEKTHHRISSLLQEAKTQAALVLGSLEARKE"
6,binds,"mitochondrial carrier SLC25A3 (protein, UniProt Q8VEM8 46-357) AVEEYSCEFGSMKYYALCGFGGVLSCGLTHTAVVPLDLVKCRMQVDPQKYKGIFNGFSITLKEDGVRGLAKGWAPTLIGYSMQGLCKFGFYEVFKALYSNILGEENTYLWRTSLYLASSASAEFFADIALAPMEAAKVRIQTQPGYANTLREAVPKMYKEEGLNAFYKGVAPLWMRQIPYTMMKFACFERTVEALYKFVVPKPRSECTKAEQLVVTFVAGYIAGVFCAIVSHPADSVVSVLNKEKGSTASQVLQRLGFRGVWKGLFARIIMIGTLTALQWFIYDSVKVYFRLPRPPPPEMPESLKKKLGLTE"
7,binds,"arginase (ARG) (protein, UniProt Q61176 1-323) MSSKPKSLEIIGAPFSKGQPRGGVEKGPAALRKAGLLEKLKETEYDVRDHGDLAFVDVPNDSSFQIVKNPRSVGKANEELAGVVAEVQKNGRVSVVLGGDHSLAVGSISGHARVHPDLCVIWVDAHTDINTPLTTSSGNLHGQPVSFLLKELKGKFPDVPGFSWVTPCISAKDIVYIGLRDVDPGEHYIIKTLGIKYFSMTEVDKLGIGKVMEETFSYLLGRKKRPIHLSFDVDGLDPAFTPATGTPVLGGLSYREGLYITEEIYKTGLLSGLDIMEVNPTLGKTAEEVKSTVNTAVALTLACFGTQREGNHKPGTDYLKPPK"
8,binds,"GOLGA1 (protein, UniProt Q9CW79 1-758) MFAKLKKKIAEETAVAQRPGGTTRIPRSVSKESVASMGADSGDDFASDGSSSREDLSSQLLRRNEQIRKLEARLSDYAEQVRNLQKIKEKLEIALEKHQDSSMRKFQEQNETFQASRAKMAEGLALALARKDQEWSEKMEQLEKDKRFLTSQLQEVKNQSLSLFQKRDEIDELEGFQQQEISKVKHMLLKKEECLGKMEQELDARTRELNRTQEELVTSNQLSSDLNERLEELQRHCSTLEEQRDHLTASKAGAEHKIVVLEQKEQELQAIIQQHSIDLQKVTAETQEKEKVITHLQEKVIFLEKRLEQNLSGEDHVQELLKEKTVAEQNLEDTRQQLLAARNSHTKALYLLETRVKDLERSLQAAEEQLSQSRNVVADQEAQIQKLITTNQENSLSQQQVLALEQHCRERIHALEAQIEALEQTRVADQIASEQGMLQLQQENVALKESRNECEHSLQHHQLELKKLKDEWSQREIVSVAMAQALEEVRKQREEFQQQATELTAIIEEKNQSLCEKDEALLQKEQELRQLEKGHSSALLQMHKLQRELEALKTCKAQEAMPATTGEDCLPLQGQEPLVISKAMQNSEYELPAAEGTPNGEVGASDLKQLQKEKQDLEQQLIEKNKIMKQMQQRMLELKKTLQKELKIRPDSELFEVREKTGPEIPNMAPSVTNNTDLTDAREINFEYLKHVVLKFMSCRESEAFHLIKAVSVLLNFSQEEENMLKETLEYKMSWFGSKPTPKGSIRPSISNPRIPWS"
9,binds,"GNMT (protein, UniProt Q9QXF8 1-293) MVDSVYRTRSLGVAAEGLPDQYADGEAARVWQLYIGDTRSRTAEYKAWLLGLLRQHGCHRVLDVACGTGVDSIMLVEEGFSVMSVDASDKMLKYALKERWNRRKEPSFDNWVIEEANWLTLDKDVLSGDGFDAVICLGNSFAHLPDCKGDQSEHRLALKNIASMVRPGGLLVIDHRNYDYILSTGCAPPGKNIYYKSDLTKDITTSVLTVNNKAHMVTLDYTVQVPGTGRDGSPGFSKFRLSYYPHCLASFTELVRAAFGGRCQHSVLGDFKPYKPGQAYVPCYFIHVLKKTD"
10,binds,"HINT1 (protein, UniProt P70349 1-126) MADEIAKAQVAQPGGDTIFGKIIRKEIPAKIIFEDDRCLAFHDISPQAPTHFLVIPKKHISQISVADDDDESLLGHLMIVGKKCAADLGLKRGYRMVVNEGADGGQSVYHIHLHVLGGRQMNWPPG"

# These are yes or no findings as the source states them, for the method shown. In cells and extracts the contact can be indirect. A yes stands for co-enrichment or nearness to the bait. Other partners may have been found. Sequences can lack the tags named with a protein.
